Results reported in the supplement of paper PMC8728848.
The list shows a part of the results.

Legend:
Test in all cases: glycan array binding signal (z-score within array); higher = stronger binding
Conditions in all cases: glycan notation: IUPAC condensed, linker removed
[1] = target: Gal(b1-3)GlcNAc(b1-2)Man(a1-3)[Gal(b1-3)GlcNAc(b1-2)Man(a1-6)]Man(b1-4)GlcNAc(b1-4)[Fuc(a1-6)]GlcNAc
In short: (§1)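 Glycan array data were curated from 3228 arrays in the Consortium for Functional Glycomics database and kept only where the protein sequence was available. Glycan names were converted to IUPAC-condensed notation, and columns mapping to the same glycan were averaged. The binding signal is a within-array Z-score, averaged across arrays of the same protein sequence at different concentrations or buffers and across linkers. Negative Z-scores can be read as non-binding.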

[2] = target: Gal(b1-3)GlcNAc(b1-2)Man(a1-3)[GlcNAc(b1-4)][Gal(b1-3)GlcNAc(b1-2)Man(a1-6)]Man(b1-4)GlcNAc(b1-4)GlcNAc
In short: as §1

[3] = target: Gal(b1-3)GlcNAc(b1-2)[Gal(b1-3)GlcNAc(b1-6)]Man(a1-6)[Gal(b1-3)GlcNAc(b1-2)Man(a1-3)]Man(b1-4)GlcNAc(b1-4)GlcNAc
In short: as §1

[4] = target: Gal(b1-3)GlcNAc(b1-3)Gal(b1-3)GlcNAc
In short: as §1

[5] = target: Gal(b1-3)GlcNAc(b1-3)Gal(b1-4)Glc
In short: as §1

[6] = target: Gal(b1-3)GlcNAc(b1-3)Gal(b1-4)GlcNAc
In short: as §1

[7] = target: Gal(b1-3)GlcNAc(b1-3)Gal(b1-4)GlcNAc(b1-2)Man(a1-3)[Gal(b1-3)GlcNAc(b1-3)Gal(b1-4)GlcNAc(b1-2)Man(a1-6)]Man(b1-4)GlcNAc(b1-4)GlcNAc
In short: as §1

[8] = target: Gal(b1-3)GlcNAc(b1-3)Gal(b1-4)GlcNAc(b1-2)[Gal(b1-3)GlcNAc(b1-3)Gal(b1-4)GlcNAc(b1-6)]Man(a1-6)[Gal(b1-3)GlcNAc(b1-3)Gal(b1-4)GlcNAc(b1-2)Man(a1-3)]Man(b1-4)GlcNAc(b1-4)[Fuc(a1-6)]GlcNAc
In short: as §1

[9] = target: Gal(b1-3)GlcNAc(b1-3)Gal(b1-4)GlcNAc(b1-3)Gal(b1-4)GlcNAc(b1-2)[Gal(b1-3)GlcNAc(b1-3)Gal(b1-4)GlcNAc(b1-3)Gal(b1-4)GlcNAc(b1-6)]Man(a1-6)[Gal(b1-3)GlcNAc(b1-3)Gal(b1-4)GlcNAc(b1-3)Gal(b1-4)GlcNAc(b1-2)Man(a1-3)]Man(b1-4)GlcNAc(b1-4)[Fuc(a1-6)]GlcNAc
In short: as §1

[10] = target: Gal(b1-3)GlcNAc(b1-3)Gal(b1-4)GlcNAc(b1-6)[Gal(b1-3)GlcNAc(b1-3)]Gal(b1-4)Glc
In short: as §1

[11] = target: Gal(b1-3)GlcNAc(b1-3)Gal(b1-4)[Fuc(a1-3)]GlcNAc
In short: as §1

[12] = target: Gal(b1-3)GlcNAc(b1-3)Gal(b1-4)[Fuc(a1-3)]GlcNAc(b1-6)[Gal(b1-3)GlcNAc(b1-3)]Gal(b1-4)Glc
In short: as §1

[13] = target: Gal(b1-3)GlcNAc(b1-3)GalNAc
In short: as §1

[14] = target: Gal(b1-3)GlcNAc(b1-6)Gal(b1-4)GlcNAc
In short: as §1

[15] = target: Gal(b1-3)GlcNAc(b1-6)GalNAc
In short: as §1

[16] = target: Gal(b1-3)GlcNAc(b1-6)[Gal(b1-3)]GalNAc
In short: as §1

Gal(b1-3)GlcNAc6S = target: Gal(b1-3)GlcNAc6S
In short: as §1

[17] = target: Gal(b1-3)[Fuc(a1-4)]GlcNAc
In short: as §1

[18] = target: Gal(b1-3)[Fuc(a1-4)]GlcNAc(b1-2)Man
In short: as §1

[19] = target: Gal(b1-3)[Fuc(a1-4)]GlcNAc(b1-2)Man(a1-3)[Gal(b1-3)[Fuc(a1-4)]GlcNAc(b1-2)Man(a1-6)]Man(b1-4)GlcNAc(b1-4)[Fuc(a1-6)]GlcNAc
In short: as §1

[20] = target: Gal(b1-3)[Fuc(a1-4)]GlcNAc(b1-3)Gal(b1-3)[Fuc(a1-4)]GlcNAc
In short: as §1

[21] = target: Gal(b1-3)[Fuc(a1-4)]GlcNAc(b1-3)Gal(b1-4)[Fuc(a1-3)]GlcNAc
In short: as §1

[22] = target: Gal(b1-3)[Fuc(a1-4)]GlcNAc(b1-6)GalNAc
In short: as §1

[23] = target: Gal(b1-3)[GlcNAc(b1-6)]GalNAc
In short: as §1

[24] = target: Gal(b1-3)[Neu5Ac(a2-6)]GalNAc
In short: as §1

[25] = target: Gal(b1-3)[Neu5Ac(a2-6)]GlcNAc(b1-4)Gal(b1-4)Glc
In short: as §1

[26] = target: Gal(b1-3)[Neu5Ac(b2-6)]GalNAc
In short: as §1

Gal(b1-4)Gal = target: Gal(b1-4)Gal
In short: as §1

[27] = target: Gal(b1-4)GalNAc(a1-3)[Fuc(a1-2)]Gal(b1-4)GlcNAc
In short: as §1

[28] = target: Gal(b1-4)GalNAc(b1-3)[Fuc(a1-2)]Gal(b1-4)GlcNAc
In short: as §1

Gal(b1-4)Glc = target: Gal(b1-4)Glc
In short: as §1

Gal(b1-4)Glc6S = target: Gal(b1-4)Glc6S
In short: as §1

Gal(b1-4)GlcNAc = target: Gal(b1-4)GlcNAc
In short: as §1

[29] = target: Gal(b1-4)GlcNAc(a1-6)Gal(b1-4)GlcNAc
In short: as §1

Gal(b1-4)GlcNAc(b1-2)Man = target: Gal(b1-4)GlcNAc(b1-2)Man
In short: as §1

[30] = target: Gal(b1-4)GlcNAc(b1-2)Man(a1-3)Man(b1-4)GlcNAc(b1-4)GlcNAc
In short: as §1

[31] = target: Gal(b1-4)GlcNAc(b1-2)Man(a1-3)[Gal(b1-4)GlcNAc(b1-2)Man(a1-6)]Man(b1-4)GlcNAc(b1-4)GlcNAc
In short: as §1

[32] = target: Gal(b1-4)GlcNAc(b1-2)Man(a1-3)[Gal(b1-4)GlcNAc(b1-2)Man(a1-6)]Man(b1-4)GlcNAc(b1-4)[Fuc(a1-6)]GlcNAc
In short: as §1

[33] = target: Gal(b1-4)GlcNAc(b1-2)Man(a1-3)[Gal(b1-4)GlcNAc(b1-2)Man(a1-6)][Gal(b1-4)GlcNAc(b1-4)]Man(b1-4)GlcNAc(b1-4)[Fuc(a1-6)]GlcNAc
In short: as §1

[34] = target: Gal(b1-4)GlcNAc(b1-2)Man(a1-3)[Gal(b1-4)GlcNAc(b1-2)Man(a1-6)][GlcNAc(b1-4)]Man(b1-4)GlcNAc(b1-4)[Fuc(a1-6)]GlcNAc
In short: as §1

[35] = target: Gal(b1-4)GlcNAc(b1-2)Man(a1-3)[GlcNAc(b1-2)Man(a1-6)]Man(b1-4)GlcNAc(b1-4)GlcNAc
In short: as §1

[36] = target: Gal(b1-4)GlcNAc(b1-2)Man(a1-3)[GlcNAc(b1-4)][Gal(b1-4)GlcNAc(b1-2)Man(a1-6)]Man(b1-4)GlcNAc(b1-4)GlcNAc
In short: as §1

[37] = target: Gal(b1-4)GlcNAc(b1-2)Man(a1-3)[Man(a1-6)]Man(b1-4)GlcNAc(b1-4)GlcNAc
In short: as §1

[38] = target: Gal(b1-4)GlcNAc(b1-2)Man(a1-6)Man(b1-4)GlcNAc(b1-4)GlcNAc
In short: as §1

[39] = target: Gal(b1-4)GlcNAc(b1-2)Man(a1-6)[GlcNAc(b1-2)Man(a1-3)]Man(b1-4)GlcNAc(b1-4)GlcNAc
In short: as §1

B1: EUL D1A first (Oryza sativa) (protein)
chain: MFGFGHHHNQAPAAPSDPNQIFKIFCRANENYCLTVRDSAVVLAPVNPKDEHQHWFKDMRFSTKVKDGEGMPAFALVNKATGLAVKHSLGQSHPVKLVPFNPEYEDASVLWTESKDVGKGFRCIRMVNNTRLNLDAFHGDKDHGGVRDGTTVVLWEWCKGDNQSWKILPWGPEAHSSSPGAATILEQKLISEEDLNSAVDHHHHHH
[1]
  glycan array binding signal (z-score): -0.837
[2]
  glycan array binding signal (z-score): 0.089
[3]
  glycan array binding signal (z-score): -1.13
[4]
  glycan array binding signal (z-score): 0.515
[5]
  glycan array binding signal (z-score): 0.047
[6]
  glycan array binding signal (z-score): -1.19
[7]
  glycan array binding signal (z-score): 0.06
[8]
  glycan array binding signal (z-score): 1.23
[9]
  glycan array binding signal (z-score): 1.3
[10]
  glycan array binding signal (z-score): -1.46
[11]
  glycan array binding signal (z-score): 0.553
[12]
  glycan array binding signal (z-score): -0.506
[13]
  glycan array binding signal (z-score): -1.07
[14]
  glycan array binding signal (z-score): -1.12
[15]
  glycan array binding signal (z-score): 0.023
[16]
  glycan array binding signal (z-score): -0.218
Gal(b1-3)GlcNAc6S
  glycan array binding signal (z-score): -0.208
[17]
  glycan array binding signal (z-score): 1.38
[18]
  glycan array binding signal (z-score): -0.092
[19]
  glycan array binding signal (z-score): -0.463
[20]
  glycan array binding signal (z-score): -0.846
[21]
  glycan array binding signal (z-score): 0.485
[22]
  glycan array binding signal (z-score): 0.926
[23]
  glycan array binding signal (z-score): -1.03
[24]
  glycan array binding signal (z-score): -0.969
[25]
  glycan array binding signal (z-score): -0.531
[26]
  glycan array binding signal (z-score): -1.15
Gal(b1-4)Gal
  glycan array binding signal (z-score): 1.09
[27]
  glycan array binding signal (z-score): -0.731
[28]
  glycan array binding signal (z-score): -0.264
Gal(b1-4)Glc
  glycan array binding signal (z-score): -1.08
Gal(b1-4)Glc6S
  glycan array binding signal (z-score): -0.635
Gal(b1-4)GlcNAc
  glycan array binding signal (z-score): 0.066
[29]
  glycan array binding signal (z-score): 1.94
Gal(b1-4)GlcNAc(b1-2)Man
  glycan array binding signal (z-score): -0.758
[30]
  glycan array binding signal (z-score): 0.1
[31]
  glycan array binding signal (z-score): 3.09
[32]
  glycan array binding signal (z-score): -1.23
[33]
  glycan array binding signal (z-score): -0.792
[34]
  glycan array binding signal (z-score): -1.23
[35]
  glycan array binding signal (z-score): -0.832
[36]
  glycan array binding signal (z-score): -0.801
[37]
  glycan array binding signal (z-score): 2.04
[38]
  glycan array binding signal (z-score): 3.03
[39]
  glycan array binding signal (z-score): 1.22
